# From the supplement of paper PMC12819154, “High-throughput peptide-centric local stability assay extends protein–ligand identification to membrane proteins, tissues and bacteria” (Nature Structural & Molecular Biology, 2025)
# Amino acid sequences for entries named in this document (tags omitted). A change or cut given only in a name is not applied to a line headed by its entry.
# UniProt Q5VWQ0: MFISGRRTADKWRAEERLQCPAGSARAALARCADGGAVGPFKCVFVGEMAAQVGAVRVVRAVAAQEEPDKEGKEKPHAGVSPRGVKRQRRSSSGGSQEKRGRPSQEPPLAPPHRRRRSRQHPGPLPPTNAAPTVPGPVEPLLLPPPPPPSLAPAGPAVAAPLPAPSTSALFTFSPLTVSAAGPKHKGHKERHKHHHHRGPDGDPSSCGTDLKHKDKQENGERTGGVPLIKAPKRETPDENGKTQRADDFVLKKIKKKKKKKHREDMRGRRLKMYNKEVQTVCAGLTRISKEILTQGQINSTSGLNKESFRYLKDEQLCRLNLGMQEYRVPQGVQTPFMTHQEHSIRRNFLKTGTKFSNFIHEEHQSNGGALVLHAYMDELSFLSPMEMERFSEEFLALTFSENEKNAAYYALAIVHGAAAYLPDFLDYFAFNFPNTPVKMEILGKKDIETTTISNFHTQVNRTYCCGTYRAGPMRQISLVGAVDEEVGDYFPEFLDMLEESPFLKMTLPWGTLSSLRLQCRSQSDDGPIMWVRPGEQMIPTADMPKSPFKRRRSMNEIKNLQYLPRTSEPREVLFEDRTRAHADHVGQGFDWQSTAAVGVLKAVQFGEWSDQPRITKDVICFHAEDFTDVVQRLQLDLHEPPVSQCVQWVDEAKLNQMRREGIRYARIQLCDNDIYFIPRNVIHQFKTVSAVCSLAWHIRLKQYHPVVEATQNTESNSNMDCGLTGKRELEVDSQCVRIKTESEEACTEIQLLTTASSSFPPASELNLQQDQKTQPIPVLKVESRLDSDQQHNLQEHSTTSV
# UniProt Q5CZA5: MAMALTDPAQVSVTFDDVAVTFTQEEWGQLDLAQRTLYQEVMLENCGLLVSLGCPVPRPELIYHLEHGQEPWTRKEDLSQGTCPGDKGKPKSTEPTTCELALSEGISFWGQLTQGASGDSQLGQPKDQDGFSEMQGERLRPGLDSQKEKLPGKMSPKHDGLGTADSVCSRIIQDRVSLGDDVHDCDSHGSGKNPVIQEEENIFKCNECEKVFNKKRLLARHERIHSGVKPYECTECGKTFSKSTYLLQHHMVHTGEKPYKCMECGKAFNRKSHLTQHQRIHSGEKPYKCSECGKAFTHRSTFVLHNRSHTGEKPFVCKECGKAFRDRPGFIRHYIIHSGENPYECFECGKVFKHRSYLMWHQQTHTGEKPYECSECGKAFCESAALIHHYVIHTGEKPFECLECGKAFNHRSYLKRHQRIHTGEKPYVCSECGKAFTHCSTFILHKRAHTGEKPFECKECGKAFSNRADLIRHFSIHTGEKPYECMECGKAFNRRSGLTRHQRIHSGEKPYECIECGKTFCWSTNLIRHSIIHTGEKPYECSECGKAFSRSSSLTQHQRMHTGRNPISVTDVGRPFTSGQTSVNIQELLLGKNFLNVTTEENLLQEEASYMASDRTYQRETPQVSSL
# UniProt Q58WW2: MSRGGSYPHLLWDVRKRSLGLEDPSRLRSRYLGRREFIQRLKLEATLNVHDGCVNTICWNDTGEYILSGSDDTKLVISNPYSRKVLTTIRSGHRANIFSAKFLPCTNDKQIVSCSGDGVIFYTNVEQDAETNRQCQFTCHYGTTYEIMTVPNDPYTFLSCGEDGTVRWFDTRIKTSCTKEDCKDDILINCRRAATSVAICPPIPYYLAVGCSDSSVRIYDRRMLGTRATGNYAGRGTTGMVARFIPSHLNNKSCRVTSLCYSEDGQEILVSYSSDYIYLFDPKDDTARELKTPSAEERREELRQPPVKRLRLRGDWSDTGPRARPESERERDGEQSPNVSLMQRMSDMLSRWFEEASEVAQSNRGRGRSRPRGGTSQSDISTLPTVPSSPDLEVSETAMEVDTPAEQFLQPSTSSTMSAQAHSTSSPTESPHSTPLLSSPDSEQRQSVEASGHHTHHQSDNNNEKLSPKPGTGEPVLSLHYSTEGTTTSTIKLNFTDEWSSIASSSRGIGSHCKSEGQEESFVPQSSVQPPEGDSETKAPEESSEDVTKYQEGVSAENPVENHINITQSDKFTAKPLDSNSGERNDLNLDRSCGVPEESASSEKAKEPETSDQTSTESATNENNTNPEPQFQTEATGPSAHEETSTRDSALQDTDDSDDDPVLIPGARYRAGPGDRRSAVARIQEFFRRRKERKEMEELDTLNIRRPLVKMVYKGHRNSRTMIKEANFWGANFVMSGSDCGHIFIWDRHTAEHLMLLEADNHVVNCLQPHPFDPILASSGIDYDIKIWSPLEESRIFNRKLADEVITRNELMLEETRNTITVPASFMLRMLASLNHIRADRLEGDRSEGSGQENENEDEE
# UniProt Q5JSJ4, whole entry: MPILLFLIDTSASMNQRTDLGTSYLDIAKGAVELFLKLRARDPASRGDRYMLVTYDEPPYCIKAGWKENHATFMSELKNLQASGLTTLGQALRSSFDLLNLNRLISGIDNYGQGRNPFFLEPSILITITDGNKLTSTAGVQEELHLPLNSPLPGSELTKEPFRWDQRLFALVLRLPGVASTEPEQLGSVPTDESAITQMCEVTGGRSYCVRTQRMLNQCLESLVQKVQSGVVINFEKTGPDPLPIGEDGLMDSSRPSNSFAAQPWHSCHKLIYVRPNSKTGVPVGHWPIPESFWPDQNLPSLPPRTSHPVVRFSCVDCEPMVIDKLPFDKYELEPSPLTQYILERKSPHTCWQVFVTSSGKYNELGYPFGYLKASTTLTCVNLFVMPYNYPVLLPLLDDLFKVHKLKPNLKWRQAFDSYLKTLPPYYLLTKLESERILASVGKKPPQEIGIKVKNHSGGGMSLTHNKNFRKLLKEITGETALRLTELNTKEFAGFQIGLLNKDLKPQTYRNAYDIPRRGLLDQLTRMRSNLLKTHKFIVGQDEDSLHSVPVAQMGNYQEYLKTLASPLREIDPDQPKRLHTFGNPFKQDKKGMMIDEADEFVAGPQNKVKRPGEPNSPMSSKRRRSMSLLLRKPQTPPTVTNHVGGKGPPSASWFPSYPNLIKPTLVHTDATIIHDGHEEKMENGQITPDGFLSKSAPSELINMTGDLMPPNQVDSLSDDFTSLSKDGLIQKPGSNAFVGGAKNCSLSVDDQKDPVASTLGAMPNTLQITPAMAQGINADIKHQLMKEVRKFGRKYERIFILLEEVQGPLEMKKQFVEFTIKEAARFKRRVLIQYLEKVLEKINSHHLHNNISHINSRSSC
# UniProt Q53H80, whole entry: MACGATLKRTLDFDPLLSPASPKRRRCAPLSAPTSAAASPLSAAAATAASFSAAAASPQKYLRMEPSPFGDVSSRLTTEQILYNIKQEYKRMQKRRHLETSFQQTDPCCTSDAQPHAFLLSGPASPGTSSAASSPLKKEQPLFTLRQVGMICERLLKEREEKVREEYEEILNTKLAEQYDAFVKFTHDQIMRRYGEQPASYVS
# UniProt Q4VC44: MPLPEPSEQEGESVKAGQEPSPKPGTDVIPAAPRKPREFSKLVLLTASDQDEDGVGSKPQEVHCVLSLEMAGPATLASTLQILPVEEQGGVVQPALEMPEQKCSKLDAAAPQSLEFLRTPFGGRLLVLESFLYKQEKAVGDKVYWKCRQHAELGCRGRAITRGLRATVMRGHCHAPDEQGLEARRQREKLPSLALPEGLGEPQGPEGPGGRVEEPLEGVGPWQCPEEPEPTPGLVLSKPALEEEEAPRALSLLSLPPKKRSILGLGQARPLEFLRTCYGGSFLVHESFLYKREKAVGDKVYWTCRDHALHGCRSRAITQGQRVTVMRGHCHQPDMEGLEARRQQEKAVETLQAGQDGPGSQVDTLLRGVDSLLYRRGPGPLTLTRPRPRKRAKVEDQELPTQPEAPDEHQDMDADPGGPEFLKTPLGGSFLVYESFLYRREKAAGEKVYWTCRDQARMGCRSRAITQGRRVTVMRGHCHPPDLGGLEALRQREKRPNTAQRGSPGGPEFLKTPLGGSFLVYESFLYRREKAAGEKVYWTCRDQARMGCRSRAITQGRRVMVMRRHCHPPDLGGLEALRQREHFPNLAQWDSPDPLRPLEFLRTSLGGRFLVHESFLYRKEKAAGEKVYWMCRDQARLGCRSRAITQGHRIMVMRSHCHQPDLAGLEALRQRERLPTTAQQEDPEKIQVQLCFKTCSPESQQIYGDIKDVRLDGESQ
# UniProt Q5TBB1: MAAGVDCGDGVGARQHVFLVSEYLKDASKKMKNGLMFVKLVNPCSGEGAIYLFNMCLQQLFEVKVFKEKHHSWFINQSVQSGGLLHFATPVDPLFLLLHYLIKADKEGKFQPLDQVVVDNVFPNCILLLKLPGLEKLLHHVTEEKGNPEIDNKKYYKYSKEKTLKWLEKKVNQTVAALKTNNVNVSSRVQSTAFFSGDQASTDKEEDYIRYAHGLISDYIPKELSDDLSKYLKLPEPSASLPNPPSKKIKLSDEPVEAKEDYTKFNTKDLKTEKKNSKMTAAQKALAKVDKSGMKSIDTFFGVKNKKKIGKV
# UniProt Q5H9F3: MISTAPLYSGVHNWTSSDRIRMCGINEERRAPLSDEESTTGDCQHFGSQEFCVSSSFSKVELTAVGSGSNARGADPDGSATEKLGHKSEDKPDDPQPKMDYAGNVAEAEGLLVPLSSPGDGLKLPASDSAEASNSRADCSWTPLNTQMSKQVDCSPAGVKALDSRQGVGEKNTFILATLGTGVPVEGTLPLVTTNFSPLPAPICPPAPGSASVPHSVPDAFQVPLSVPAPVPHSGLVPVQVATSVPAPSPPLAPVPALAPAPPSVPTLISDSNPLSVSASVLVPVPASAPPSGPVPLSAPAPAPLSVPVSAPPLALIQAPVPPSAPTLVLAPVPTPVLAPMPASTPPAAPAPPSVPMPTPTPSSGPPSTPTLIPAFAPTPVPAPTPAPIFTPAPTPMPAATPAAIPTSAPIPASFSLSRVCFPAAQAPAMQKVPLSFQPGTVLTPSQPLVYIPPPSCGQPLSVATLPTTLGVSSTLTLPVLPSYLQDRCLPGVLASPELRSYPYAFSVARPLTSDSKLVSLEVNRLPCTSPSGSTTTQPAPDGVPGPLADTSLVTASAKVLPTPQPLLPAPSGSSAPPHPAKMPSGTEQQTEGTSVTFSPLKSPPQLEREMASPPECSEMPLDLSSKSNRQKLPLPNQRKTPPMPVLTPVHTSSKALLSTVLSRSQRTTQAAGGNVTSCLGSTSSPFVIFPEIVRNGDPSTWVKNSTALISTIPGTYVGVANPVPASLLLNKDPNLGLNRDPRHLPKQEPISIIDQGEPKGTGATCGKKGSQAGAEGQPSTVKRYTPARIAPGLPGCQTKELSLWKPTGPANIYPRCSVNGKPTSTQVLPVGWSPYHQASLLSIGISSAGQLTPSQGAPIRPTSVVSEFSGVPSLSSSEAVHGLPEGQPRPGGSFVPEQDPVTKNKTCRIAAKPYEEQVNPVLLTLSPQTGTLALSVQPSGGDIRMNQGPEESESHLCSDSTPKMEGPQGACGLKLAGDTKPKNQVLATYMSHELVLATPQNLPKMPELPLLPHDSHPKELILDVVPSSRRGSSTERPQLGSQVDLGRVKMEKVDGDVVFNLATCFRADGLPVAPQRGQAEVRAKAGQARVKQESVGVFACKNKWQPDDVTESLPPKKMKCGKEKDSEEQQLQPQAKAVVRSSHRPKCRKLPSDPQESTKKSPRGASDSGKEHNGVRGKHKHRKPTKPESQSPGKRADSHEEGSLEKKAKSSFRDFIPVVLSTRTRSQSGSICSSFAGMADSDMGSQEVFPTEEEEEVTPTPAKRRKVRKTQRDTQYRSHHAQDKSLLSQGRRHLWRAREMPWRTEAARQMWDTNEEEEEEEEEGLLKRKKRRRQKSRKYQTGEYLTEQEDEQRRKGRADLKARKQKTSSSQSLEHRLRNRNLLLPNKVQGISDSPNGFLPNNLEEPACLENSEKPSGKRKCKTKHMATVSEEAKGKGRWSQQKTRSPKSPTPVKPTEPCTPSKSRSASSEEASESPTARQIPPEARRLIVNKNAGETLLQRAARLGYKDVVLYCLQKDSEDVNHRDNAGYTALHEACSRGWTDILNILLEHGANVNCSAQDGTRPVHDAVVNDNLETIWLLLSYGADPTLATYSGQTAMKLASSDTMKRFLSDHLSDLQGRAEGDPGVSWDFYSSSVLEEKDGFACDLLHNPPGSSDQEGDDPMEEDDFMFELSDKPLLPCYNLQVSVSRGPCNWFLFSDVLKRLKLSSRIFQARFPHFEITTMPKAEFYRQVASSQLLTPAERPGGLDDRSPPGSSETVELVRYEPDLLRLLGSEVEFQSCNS
# The list shows a part of the results. Small differences around the control level are noise.
# Compound: CN[C@@H]1C[C@H]2O[C@@](C)([C@@H]1OC)n1c3ccccc3c3c4c(c5c6ccccc6n2c5c31)C(=O)NC4 [staurosporine]
# Test: log2 fold change of tryptic peptide abundance, ligand vs vehicle (limited proteolysis) (log2 ratio); higher = more trypsin-susceptible (destabilized)
# Conditions: ligand concentration: 20 uM; sample: K562 cleared lysate; digestion: 4 min, 22 C (HT-PELSA RT4min, Orbitrap Astral)
target,measurement,value
"UniProt Q5VWQ0 (peptide sequence: RETPDENGK, peptide start residue: 234)",log2 fold change,-0.518
"UniProt Q5CZA5 (peptide sequence: HDGLGTADSVCSR, peptide start residue: 158)",log2 fold change,-0.156
"UniProt Q58WW2 (peptide sequence: NTITVPASFMLR, peptide start residue: 818)",log2 fold change,0.912
"UniProt Q5JSJ4 (peptide sequence: ILASVGKKPPQEIGIK, peptide start residue: 437)",log2 fold change,0.619
"AKIRIN2 (peptide sequence: LTTEQILYNIK, peptide start residue: 76) (UniProt Q53H80)",log2 fold change,-0.174
"IQSEC2 (peptide sequence: GFLSDTPVGVAHFILERK, peptide start residue: 779) (UniProt Q5JU85)",log2 fold change,-0.744
"FLYWCH1 (peptide sequence: LLVLESFLYKQEK, peptide start residue: 125) (UniProt Q4VC44)",log2 fold change,0.268
"RNASEH2B (peptide sequence: IKLSDEPVEAK, peptide start residue: 249) (UniProt Q5TBB1)",log2 fold change,0.474
"BCORL1 (peptide sequence: VELTAVGSGSNAR, peptide start residue: 60) (UniProt Q5H9F3)",log2 fold change,-0.597

# 2 entries from above, tab-delimited.
target	measurement	value
UniProt Q5VWQ0 (peptide sequence: RETPDENGK, peptide start residue: 234)	log2 fold change	-0.518
UniProt Q5CZA5 (peptide sequence: HDGLGTADSVCSR, peptide start residue: 158)	log2 fold change	-0.156
